Here are results for 2 substances from article PMC6731589.

Amino acid sequences for entries named in this document (tags omitted). A change or cut given only in a name is not applied to a line headed by its entry.
UniProt Q9WV92: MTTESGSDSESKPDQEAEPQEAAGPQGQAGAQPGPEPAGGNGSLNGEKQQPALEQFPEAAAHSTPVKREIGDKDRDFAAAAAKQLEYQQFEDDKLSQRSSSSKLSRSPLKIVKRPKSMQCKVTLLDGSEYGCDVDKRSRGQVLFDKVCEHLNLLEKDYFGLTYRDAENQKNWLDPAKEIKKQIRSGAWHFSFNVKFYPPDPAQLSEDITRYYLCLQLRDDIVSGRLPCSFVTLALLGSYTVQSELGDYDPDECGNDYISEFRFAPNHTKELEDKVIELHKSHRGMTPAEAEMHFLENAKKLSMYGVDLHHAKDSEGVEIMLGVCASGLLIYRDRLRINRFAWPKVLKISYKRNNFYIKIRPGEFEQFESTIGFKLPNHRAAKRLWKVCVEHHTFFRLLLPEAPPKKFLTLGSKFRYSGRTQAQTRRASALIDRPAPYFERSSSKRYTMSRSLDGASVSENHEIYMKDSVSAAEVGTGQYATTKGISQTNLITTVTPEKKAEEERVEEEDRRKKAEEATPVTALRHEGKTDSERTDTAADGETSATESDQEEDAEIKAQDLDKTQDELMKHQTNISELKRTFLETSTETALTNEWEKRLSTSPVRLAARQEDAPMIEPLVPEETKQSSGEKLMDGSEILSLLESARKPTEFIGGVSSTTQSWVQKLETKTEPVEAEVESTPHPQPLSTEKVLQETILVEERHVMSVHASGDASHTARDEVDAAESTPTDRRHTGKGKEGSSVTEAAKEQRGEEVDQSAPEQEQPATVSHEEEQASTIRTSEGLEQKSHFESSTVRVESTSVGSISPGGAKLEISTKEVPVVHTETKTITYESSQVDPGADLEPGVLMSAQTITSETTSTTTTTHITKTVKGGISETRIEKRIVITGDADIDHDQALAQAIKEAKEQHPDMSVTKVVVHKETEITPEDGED

The target in this experiment is T1, biotinylated EGFR P13 peptide (initial 13 amino acids of the intracellular JM segment).
T1 sequence (peptide, biotin (position not stated)): RRRHIVRKRTLRR
Put plainly: pull-down; biotinylated EGFR P13 peptides on immobilized streptavidin beads, 4.1B protein or GST-tagged 4.1B domains added, 100 μl, coupled protein 2 μM, 1 h at room temperature, western blot (anti-GST antibody for the GST-tagged domains); both purified. For orientation: Immunoblotting shows a protein as a band on a membrane.

No constants are given. Whether binding was seen depends on the method and setting. Some binding calls cover weakened binding; strength is not graded here.

“GST-tagged FERM domain of 4.1B (from UniProt Q9WV92 118-399) (domain or fragment)”: the binding result is “binds”.

On to “His-tagged 4.1B (the 4.1B 130-kDa protein) (from UniProt Q9WV92 1-929)”, for which the binding entry is on record as “binds”.
